These are yes or no findings as the source states them, for the method shown. In cells and extracts the contact can be indirect. Some entries that bind do so weakly or less than the wild type.
Target: FLS2-YFPn/c (UniProt Q9FL28)
Experiment: split reporter

By UniProt entry, the sequences of proteins in these tests, tags left out. Residues count along the entry.
UniProt Q9FL28, residues 24-1173: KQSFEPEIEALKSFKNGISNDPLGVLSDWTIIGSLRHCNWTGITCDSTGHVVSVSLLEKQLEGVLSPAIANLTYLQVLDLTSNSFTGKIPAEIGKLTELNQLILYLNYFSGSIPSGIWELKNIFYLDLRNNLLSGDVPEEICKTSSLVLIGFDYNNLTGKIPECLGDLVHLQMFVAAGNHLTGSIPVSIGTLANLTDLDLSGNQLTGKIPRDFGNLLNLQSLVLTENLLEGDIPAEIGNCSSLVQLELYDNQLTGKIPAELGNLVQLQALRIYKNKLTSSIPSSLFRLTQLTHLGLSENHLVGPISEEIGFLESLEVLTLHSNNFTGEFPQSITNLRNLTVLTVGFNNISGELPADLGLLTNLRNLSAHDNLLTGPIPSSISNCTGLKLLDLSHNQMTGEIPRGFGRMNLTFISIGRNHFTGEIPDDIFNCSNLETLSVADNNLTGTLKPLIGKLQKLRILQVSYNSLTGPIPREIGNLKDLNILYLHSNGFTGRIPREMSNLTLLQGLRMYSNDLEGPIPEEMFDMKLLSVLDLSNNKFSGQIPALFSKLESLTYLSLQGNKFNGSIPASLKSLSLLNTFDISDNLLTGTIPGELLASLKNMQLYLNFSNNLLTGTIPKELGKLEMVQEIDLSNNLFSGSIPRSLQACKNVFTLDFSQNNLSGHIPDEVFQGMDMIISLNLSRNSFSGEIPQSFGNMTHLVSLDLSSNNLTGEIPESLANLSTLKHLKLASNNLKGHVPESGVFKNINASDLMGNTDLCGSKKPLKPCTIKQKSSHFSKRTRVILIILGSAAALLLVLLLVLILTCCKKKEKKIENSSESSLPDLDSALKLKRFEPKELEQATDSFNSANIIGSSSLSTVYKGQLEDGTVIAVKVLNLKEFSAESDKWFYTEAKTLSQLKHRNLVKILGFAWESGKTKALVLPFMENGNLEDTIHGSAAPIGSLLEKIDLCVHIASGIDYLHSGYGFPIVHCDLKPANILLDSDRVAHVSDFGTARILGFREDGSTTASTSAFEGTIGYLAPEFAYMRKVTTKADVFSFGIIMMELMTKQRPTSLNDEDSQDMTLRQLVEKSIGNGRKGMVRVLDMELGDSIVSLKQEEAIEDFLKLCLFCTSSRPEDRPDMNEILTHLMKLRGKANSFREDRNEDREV

Question: Which binding does the source give for “FLS2-YFPn/c (from UniProt Q9FL28 24-1173) (receptor)” here?
Answer: binds

From paper doi:10.1101/019471
